Reference: article PMC12713402
These are yes or no findings as the source states them, for the method shown. Binding seen in cells or lysates may run through a third protein.

Target: SpoVD-FLAG3 (Clostridioides difficile)
Experiment: co-IP; FLAG-tagged bait from sporulating C. difficile (12 h on 70:30 plates), cells cross-linked with 0.25% PFA, lysate solubilised with 0.5% DDM in 150 mM NaCl, 50 mM Tris-HCl pH 7.5, anti-FLAG M2 magnetic resin, eluted with 3x FLAG peptide, Western blot; SpoVD-FLAG3 also in a ∆spoVD∆pbp3 background

Q: How did the binding turn out when “SpoIID, endogenous (from UniProt Q18CL6)” was run?
A: The binding was “no binding”.
